Assay results as given in the supplement of paper PMC10849652.
This is one part of the list.

Sequences of proteins named here, by UniProt entry; tags and fusion partners are left off. A change or cut given only in a name is not applied to a line headed by its entry.
UniProt Q15042: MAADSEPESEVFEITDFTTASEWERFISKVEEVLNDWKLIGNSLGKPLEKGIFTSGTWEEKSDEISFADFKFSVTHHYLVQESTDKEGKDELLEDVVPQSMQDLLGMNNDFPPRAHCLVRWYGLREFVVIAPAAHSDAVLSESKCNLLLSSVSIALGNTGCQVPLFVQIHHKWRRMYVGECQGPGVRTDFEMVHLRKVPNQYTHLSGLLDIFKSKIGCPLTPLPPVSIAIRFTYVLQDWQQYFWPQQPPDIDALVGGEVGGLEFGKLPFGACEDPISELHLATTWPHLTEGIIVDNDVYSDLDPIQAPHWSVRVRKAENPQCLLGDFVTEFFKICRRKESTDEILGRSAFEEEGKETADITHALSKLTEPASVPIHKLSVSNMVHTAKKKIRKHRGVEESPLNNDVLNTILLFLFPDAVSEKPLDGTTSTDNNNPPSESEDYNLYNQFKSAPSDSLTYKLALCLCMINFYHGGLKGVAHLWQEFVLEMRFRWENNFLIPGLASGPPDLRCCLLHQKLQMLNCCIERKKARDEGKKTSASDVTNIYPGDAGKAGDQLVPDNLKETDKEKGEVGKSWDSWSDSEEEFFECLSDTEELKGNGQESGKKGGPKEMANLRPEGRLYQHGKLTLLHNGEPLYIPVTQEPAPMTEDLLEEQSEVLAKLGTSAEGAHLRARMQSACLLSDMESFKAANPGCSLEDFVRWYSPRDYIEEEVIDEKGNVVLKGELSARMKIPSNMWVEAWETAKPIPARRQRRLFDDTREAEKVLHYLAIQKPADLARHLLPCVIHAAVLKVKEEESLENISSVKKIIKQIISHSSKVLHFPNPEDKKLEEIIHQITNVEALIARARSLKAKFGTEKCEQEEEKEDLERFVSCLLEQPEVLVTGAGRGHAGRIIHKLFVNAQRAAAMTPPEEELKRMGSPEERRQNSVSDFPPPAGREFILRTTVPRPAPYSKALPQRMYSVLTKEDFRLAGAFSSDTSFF
UniProt P11233: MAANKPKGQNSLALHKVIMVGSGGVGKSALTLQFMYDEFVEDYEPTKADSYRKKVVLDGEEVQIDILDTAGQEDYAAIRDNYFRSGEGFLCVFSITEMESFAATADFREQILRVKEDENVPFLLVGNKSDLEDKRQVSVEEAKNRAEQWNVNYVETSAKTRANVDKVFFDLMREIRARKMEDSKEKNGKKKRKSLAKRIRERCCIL
UniProt P46060: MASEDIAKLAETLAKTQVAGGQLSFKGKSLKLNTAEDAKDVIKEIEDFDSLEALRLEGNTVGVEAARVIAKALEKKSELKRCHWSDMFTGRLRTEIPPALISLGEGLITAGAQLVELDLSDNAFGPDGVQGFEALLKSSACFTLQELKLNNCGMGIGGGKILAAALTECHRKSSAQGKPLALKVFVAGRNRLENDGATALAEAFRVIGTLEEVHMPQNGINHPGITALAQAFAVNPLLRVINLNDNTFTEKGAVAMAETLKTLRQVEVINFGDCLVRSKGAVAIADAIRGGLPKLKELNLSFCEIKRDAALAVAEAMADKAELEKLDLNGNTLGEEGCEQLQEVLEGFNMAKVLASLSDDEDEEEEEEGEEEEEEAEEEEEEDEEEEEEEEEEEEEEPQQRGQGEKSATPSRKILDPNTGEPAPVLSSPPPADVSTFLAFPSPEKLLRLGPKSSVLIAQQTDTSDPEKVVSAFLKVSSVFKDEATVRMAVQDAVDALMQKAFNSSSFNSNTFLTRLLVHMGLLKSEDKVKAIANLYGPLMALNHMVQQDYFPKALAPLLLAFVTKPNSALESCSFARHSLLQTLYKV
UniProt P61006: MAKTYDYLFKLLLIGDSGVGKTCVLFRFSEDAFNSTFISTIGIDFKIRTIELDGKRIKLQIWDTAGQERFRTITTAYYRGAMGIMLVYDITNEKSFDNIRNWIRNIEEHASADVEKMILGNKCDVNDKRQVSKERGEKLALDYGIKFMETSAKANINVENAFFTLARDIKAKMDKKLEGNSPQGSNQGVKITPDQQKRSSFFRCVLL
UniProt P49792, whole entry, looked up: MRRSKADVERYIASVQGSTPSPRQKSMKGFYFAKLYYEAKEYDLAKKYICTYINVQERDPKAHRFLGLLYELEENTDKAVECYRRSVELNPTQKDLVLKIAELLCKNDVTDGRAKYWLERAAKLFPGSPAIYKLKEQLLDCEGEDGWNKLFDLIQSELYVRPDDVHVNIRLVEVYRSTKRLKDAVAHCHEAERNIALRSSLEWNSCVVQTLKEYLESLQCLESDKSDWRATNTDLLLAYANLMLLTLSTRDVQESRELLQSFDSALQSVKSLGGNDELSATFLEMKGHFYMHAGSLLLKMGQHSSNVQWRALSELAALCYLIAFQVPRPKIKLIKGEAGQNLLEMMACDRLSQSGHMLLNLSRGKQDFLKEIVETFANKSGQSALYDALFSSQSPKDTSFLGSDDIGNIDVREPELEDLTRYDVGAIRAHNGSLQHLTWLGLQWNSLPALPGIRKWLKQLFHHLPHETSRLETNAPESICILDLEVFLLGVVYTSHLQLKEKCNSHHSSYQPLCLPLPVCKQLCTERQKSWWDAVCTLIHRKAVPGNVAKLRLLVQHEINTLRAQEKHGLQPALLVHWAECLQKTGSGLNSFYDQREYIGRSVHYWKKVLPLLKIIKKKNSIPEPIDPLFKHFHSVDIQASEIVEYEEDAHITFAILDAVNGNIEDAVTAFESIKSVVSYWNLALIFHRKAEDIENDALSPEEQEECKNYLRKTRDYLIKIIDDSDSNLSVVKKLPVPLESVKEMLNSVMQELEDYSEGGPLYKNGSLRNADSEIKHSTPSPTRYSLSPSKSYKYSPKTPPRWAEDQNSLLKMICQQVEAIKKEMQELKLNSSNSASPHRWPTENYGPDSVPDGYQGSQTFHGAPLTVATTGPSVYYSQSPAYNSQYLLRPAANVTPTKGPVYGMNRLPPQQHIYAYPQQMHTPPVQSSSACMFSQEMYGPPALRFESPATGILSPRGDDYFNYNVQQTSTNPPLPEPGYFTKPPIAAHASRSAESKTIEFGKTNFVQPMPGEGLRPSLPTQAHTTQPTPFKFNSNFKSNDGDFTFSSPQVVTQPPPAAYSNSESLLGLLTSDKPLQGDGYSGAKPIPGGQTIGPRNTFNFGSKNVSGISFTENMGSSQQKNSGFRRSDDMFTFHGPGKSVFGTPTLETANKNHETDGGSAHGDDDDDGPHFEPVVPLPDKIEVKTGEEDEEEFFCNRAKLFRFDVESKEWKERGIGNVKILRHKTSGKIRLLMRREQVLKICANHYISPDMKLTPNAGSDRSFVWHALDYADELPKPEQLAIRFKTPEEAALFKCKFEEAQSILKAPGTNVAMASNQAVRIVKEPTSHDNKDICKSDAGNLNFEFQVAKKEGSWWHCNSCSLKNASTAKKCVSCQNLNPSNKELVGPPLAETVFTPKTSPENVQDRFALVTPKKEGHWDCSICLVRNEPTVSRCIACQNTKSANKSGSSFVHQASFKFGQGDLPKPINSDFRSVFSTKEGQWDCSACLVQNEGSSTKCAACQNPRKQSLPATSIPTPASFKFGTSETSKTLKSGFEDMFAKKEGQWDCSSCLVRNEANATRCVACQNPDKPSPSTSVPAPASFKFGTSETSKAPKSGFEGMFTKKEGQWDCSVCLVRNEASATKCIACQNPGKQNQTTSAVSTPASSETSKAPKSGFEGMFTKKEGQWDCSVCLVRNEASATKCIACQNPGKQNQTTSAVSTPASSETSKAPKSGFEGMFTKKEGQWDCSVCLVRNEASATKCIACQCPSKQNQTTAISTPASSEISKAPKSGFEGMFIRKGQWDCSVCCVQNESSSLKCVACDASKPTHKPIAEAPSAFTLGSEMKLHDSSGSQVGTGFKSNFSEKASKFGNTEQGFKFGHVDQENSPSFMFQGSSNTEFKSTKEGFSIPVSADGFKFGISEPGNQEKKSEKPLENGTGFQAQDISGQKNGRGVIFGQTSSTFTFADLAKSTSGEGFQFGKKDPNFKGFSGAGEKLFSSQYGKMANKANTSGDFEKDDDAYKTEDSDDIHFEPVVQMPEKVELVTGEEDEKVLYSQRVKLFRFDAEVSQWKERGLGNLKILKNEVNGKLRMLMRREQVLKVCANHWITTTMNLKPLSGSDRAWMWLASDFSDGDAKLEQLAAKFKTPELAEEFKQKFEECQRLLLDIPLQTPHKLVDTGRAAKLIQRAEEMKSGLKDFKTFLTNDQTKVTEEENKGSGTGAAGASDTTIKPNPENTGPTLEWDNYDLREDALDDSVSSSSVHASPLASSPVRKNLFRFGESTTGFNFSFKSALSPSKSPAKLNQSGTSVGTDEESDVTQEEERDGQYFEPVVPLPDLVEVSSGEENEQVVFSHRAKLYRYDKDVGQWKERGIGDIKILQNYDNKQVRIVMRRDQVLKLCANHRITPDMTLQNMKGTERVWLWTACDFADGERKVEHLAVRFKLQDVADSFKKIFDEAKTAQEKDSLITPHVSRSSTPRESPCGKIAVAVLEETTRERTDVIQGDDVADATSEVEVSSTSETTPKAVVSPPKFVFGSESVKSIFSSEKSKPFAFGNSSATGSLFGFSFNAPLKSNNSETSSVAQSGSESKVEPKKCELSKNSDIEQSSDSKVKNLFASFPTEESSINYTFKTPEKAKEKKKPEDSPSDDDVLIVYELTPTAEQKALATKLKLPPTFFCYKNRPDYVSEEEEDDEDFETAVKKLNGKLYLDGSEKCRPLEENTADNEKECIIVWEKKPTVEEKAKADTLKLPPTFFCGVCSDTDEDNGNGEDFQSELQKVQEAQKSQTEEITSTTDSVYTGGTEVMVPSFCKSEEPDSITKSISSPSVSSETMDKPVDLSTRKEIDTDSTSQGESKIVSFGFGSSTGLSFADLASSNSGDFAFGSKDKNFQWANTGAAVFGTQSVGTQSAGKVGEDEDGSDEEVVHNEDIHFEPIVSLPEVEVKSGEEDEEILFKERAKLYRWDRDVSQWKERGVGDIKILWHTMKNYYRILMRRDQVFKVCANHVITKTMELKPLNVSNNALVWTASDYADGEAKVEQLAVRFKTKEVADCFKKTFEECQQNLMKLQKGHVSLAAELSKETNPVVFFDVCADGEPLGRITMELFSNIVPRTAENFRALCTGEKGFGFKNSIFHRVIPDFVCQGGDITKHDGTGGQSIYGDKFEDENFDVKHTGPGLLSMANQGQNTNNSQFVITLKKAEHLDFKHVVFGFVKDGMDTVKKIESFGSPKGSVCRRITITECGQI
UniProt Q9P2N5: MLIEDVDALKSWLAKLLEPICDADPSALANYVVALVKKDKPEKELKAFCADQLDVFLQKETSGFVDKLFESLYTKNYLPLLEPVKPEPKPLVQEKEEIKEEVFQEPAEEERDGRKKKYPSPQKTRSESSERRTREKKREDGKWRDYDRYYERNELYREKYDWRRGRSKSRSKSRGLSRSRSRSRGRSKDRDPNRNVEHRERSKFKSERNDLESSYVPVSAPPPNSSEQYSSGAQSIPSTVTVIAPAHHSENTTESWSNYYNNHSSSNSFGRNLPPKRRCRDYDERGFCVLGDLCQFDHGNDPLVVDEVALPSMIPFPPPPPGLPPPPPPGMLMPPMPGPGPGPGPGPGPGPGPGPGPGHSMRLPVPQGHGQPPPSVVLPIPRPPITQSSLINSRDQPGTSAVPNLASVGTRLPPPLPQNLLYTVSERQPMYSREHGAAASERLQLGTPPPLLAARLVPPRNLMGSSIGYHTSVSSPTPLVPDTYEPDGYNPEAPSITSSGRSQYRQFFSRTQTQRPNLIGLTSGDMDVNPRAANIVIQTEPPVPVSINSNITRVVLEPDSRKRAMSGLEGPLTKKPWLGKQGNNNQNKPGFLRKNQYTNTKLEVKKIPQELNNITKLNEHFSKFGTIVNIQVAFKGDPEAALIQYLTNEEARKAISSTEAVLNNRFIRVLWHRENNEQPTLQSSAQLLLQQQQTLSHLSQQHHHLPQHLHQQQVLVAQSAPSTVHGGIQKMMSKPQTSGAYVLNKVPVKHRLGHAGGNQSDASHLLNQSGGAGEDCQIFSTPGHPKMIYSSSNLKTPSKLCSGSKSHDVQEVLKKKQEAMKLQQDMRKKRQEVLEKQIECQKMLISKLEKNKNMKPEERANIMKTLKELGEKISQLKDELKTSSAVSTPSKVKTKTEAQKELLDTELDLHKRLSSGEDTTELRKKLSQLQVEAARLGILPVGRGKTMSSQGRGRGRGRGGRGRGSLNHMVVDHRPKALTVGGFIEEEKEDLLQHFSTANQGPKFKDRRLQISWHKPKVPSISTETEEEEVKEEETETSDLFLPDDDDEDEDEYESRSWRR
UniProt Q53S08: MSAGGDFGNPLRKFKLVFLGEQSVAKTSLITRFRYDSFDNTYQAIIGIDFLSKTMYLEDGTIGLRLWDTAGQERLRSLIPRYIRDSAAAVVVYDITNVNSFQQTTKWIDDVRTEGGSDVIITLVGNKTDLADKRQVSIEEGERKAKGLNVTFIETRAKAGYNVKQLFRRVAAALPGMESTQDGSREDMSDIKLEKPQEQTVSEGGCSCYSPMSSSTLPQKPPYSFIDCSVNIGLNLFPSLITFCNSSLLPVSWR

compound: Cc1ncc(-c2ccnc(Nc3ccc(S(C)(=O)=O)cc3)n2)n1C(C)C; experiment: log2 fold change, soluble protein after heating vs DMSO (PISA); higher = thermal stabilisation; K562 cells, 10 uM, 30 min; active = over 0.2 and 3.5 SD of the protein, either way, in both replicates (recomputed)
Method in brief: (§1)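 Quantification of soluble protein used TMTpro 16plex LC-MS/MS, with channel sums equalised. Samples were the supernatant after 21,000xg for 90 min of pooled aliquots from K562 cells (2×10^6 cells/mL) treated with 10 μM compound for 30 min, heated for 3 min over 48°C-58°C, and extracted in PBS with 0.5% NP-40 at 4°C. Values, from duplicates, describe thermal stability against control samples on a log2 fold-change scale.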

log2 fold change, inactive:
RAN (UniProt P62826) -0.008
RAB3GAP1 (UniProt Q15042) 0.03
RALA (UniProt P11233) -0.026
RANGAP1 (UniProt P46060) 0.051
RAB8A isoform 2 (UniProt P61006) -0.012
RAC1 (UniProt P63000) 0.048

compound: Cn1cc(-c2ccc3c(c2)CCN3C(=O)Cc2cccc(C(F)(F)F)c2)c2c(N)ncnc21; experiment: as above
Method in brief: as §1

log2 fold change, inactive:
RASA1 (UniProt P20936) 0.02
RAB11FIP1 (UniProt Q6WKZ4) 0.008
RAB8B (UniProt Q92930) 0.031
RAP1B (UniProt F5GZG1) -0.067
RBM22 (UniProt Q9NW64) -0.133
RALY (UniProt Q9UKM9) -0.596
RASA2 (UniProt Q15283) -0.089
RAB11A (UniProt P62491) 0.034
RALGAPB (UniProt Q86X10) -0.13
RALGAPA1 isoform 6 (UniProt Q6GYQ0) -0.026
RALBP1 (UniProt Q15311) -0.198
RANBP2 (UniProt P49792) -0.047
RBM27 (UniProt Q9P2N5) 0.053
RB1CC1 (UniProt Q8TDY2) 0.029
RACK1 (UniProt D6RF23) -0.032
RAD51 (UniProt Q06609) 0.037
RAP1A (UniProt P62834) 0.041
RASSF5 (UniProt Q8WWW0) -0.149
RAPGEF6 isoform 4 (UniProt Q8TEU7) 0
RAB31 (UniProt Q13636) 0.061
RAD9A (UniProt Q99638) 0.014
RAD51AP1 (UniProt Q96B01) 0.029
RB1 (UniProt P06400) 0.082
RANBP10 (UniProt Q6VN20) -0.109
RACGAP1 (UniProt Q9H0H5) 0.054
RAB6D (UniProt Q53S08) 0.066
RAN (UniProt P62826) -0.028
RAB3GAP1 (UniProt Q15042) -0.093
RAPGEF2, A0A2R8YGD3 0.078
RALA (UniProt P11233) 0.014
RANGAP1 (UniProt P46060) -0.037
RAB8A isoform 2 (UniProt P61006) -0.025
RAC1 (UniProt P63000) 0.024

compound: Cn1cc(-c2ccc3nnc(C(F)(F)c4ccc5ncccc5c4)n3n2)cn1; experiment: as above
Method in brief: as §1

log2 fold change, inactive:
RASA1 (UniProt P20936) -0.032
RAB11FIP1 (UniProt Q6WKZ4) 0
RAB8B (UniProt Q92930) -0.016
RBM22 (UniProt Q9NW64) -0.071
RALY (UniProt Q9UKM9) -0.011
RASA2 (UniProt Q15283) 0.247
RAB11A (UniProt P62491) 0.049
RALGAPB (UniProt Q86X10) -0.137
RALGAPA1 isoform 6 (UniProt Q6GYQ0) 0.032
RANBP2 (UniProt P49792) -0.051
RBM27 (UniProt Q9P2N5) 0.041
RB1CC1 (UniProt Q8TDY2) 0.017
RACK1 (UniProt D6RF23) -0.01
RAD51 (UniProt Q06609) 0.003
RAP1A (UniProt P62834) -0.016
RASSF5 (UniProt Q8WWW0) -0.076
RAPGEF6 isoform 4 (UniProt Q8TEU7) -0.02
RAB31 (UniProt Q13636) -0.01
RAD9A (UniProt Q99638) -0.039
RAD51AP1 (UniProt Q96B01) -0.032
RB1 (UniProt P06400) 0.011
RANBP10 (UniProt Q6VN20) 0.012
RACGAP1 (UniProt Q9H0H5) -0.139
RAB6D (UniProt Q53S08) -0.024
RAN (UniProt P62826) -0.022
RAB3GAP1 (UniProt Q15042) -0.052
RAPGEF2, A0A2R8YGD3 -0.083
RALA (UniProt P11233) 0.043
RANGAP1 (UniProt P46060) -0.024
RAB8A isoform 2 (UniProt P61006) -0.001
RAC1 (UniProt P63000) -0.037
